# In US20040247607A1, “Use of surfactants to stabilize oocysts” (priority 1999, published 2004):
# Some of these results come from one statement about several compounds together.
# Test system: sporulated oocysts
# Test: Prevention of sporulated oocyst aggregation: surfactant added, samples shaken manually, visual examination
substance,measurement,setting,value
alkyloxypolyethyleneoxyethanol [Tergitol 15-S-9],concentration found effective at preventing the aggregation of sporulated oocysts,"0.1 mg/ml, and above",≥ 0.1 mg/mL
same,concentration also found effective at preventing sporulated oocyst aggregation,as low as 0.05 mg/ml,≥ 0.05 mg/mL
